Test results as given in PubChem BioAssay AID2685 (National Center for Advancing Translational Sciences (NCATS), 2010).
This is one part of the list. Shown are side measurements of this screen, not its main read-out; they come without a call. Compounds called inactive in the main read-out are mostly missing here. Words in brackets tell the shape of the fitted curve; partial curves, single points and poor fits give uncertain potencies.

Assay: qHTS Assay for Lipid Storage Modulators in Drosophila S3 Cells;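 as to cell number change: cells counted by Cell Tracker Red CMTPX staining in the red channel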
Settings: BODIPY lipid droplet fluorescence, 18-24 h; for cell number change: measured here: cell count max response, cells fed with added oleic acid
Procedure, shortened: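 Drosophila S3 cells loaded with oleic acid (400 uM, as added) and compounds at several concentrations; lipid droplets imaged by 488-nm laser-scanning cytometry, 500–530 nm intensity and object ratio to cell channel. Percent activity normalized to 20 uM Triacsin C.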

[1] = measured here: cell number channel AC50, cells fed with added oleic acid
[2] = measured here: lipid fluorescence (Fed channel) AC50, cells fed with added oleic acid

COc1cc(/C=N/n2cnnc2)ccc1OCc1ccc(C)cc1
cell number change: -58.4%
AC50 [1]: 23.1 µM [falling, single point]

Cc1cc(C)c(OCC(=O)OCC(=O)NC2CCC(C)CC2)c(C)c1 (centres undefined)
cell number change: 119%
AC50 [2]: 20.6 µM [rising, single point]

COc1cc(S(=O)(=O)NCC2(N3CCCCC3)CCCCC2)ccc1NC(C)=O
AC50 [2]: 29.1 µM [rising, single point]

Oc1ccccc1Cn1c(-c2ccccc2O)nc2ccccc21
cell number change: -63.4%
AC50 [1]: 29.1 µM [falling, single point]
AC50 [2]: 29.1 µM [falling, single point]

CNC(=O)c1nc(C)n(-c2ccc([N+](=O)[O-])cc2)n1
cell number change: -43%
AC50 [2]: 4.11 µM [falling, full curve]

CCC(=O)N(c1nnc(SCC(=O)Nc2ccc(N3CCOCC3)cc2)s1)C1CC1
cell number change: 10.5%
AC50 [2]: 0.291 µM [rising, full curve, poor fit]

COc1ccc(C2C(C#N)=C(N)Oc3cc4c(cc32)OCO4)cc1 (centres undefined)
cell number change: 205%
AC50 [1]: 3.66 µM [rising, full curve]
AC50 [2]: 2.06 µM [rising, partial curve]

O=C(c1ccsc1)N1CCCC(Nc2cccc(F)c2)C1 (centres undefined)
cell number change: 30.2%
AC50 [1]: 22.4 µM [rising, single point]

O=C(NNC(=O)c1csc(N2CCOCC2)n1)c1ccc(=O)[nH]c1
cell number change: -5.31%
AC50 [2]: 8.2 µM [rising, partial curve]

CCc1cc(=O)oc2c(C)c(OCC(=O)NCCN3CCOCC3)ccc12
cell number change: 4.18%
AC50 [2]: 20.6 µM [rising, single point]

CC1CCCCC12NC(=O)N(CC(=O)N1CCN(S(=O)(=O)c3cccs3)CC1)C2=O (centres undefined)
cell number change: 1.2%

COc1ccc(C(=O)c2sc3nc(-c4ccccc4)ccc3c2N)cc1
cell number change: 0.485%
AC50 [2]: 2.06 µM [rising, partial curve]

O=C(NCC1OCCc2ccccc21)c1cc(COc2ccc(F)cc2Cl)on1 (centres undefined)
cell number change: -23.4%
AC50 [2]: 18.4 µM [falling, single point]

O=C(CC(c1ccccc1)c1cc(Cl)ccc1O)N1CCOCC1 (centres undefined)
cell number change: -132%
AC50 [1]: 20.6 µM [falling, single point]

COc1ccc(C(=O)N2CCCC(c3ccccc3)=N2)cc1
cell number change: 39.4%
AC50 [1]: 6.51 µM [rising, partial curve]
AC50 [2]: 29.1 µM [rising, single point]

COCCN(C(=O)Nc1ccc(OC)cc1OC)C1CCN(C(C)=O)CC1
cell number change: -27.3%
AC50 [2]: 29.1 µM [falling, partial curve]

COc1cc(C=C2C(=O)OC(C)(C)OC2=O)ccc1OCC(=O)Nc1ccccc1
cell number change: 13.2%
AC50 [2]: 0.13 µM [rising, full curve, poor fit]

Cc1ccc(O)c(CC(C)C)n1
cell number change: -2.26%
AC50 [2]: 2.59 µM [falling, single point]

CC(C)(C)c1ccc(C(=O)Nn2cnnc2)cc1
cell number change: 0.549%

CC(C)C(C(=O)O)N1C(=O)/C(=C/c2cccn2C)SC1=S (centres undefined)
cell number change: 30.7%
AC50 [1]: 0.092 µM [rising, full curve, poor fit]

CCN(CC)c1ncnc2c1cnn2C
cell number change: -6.35%
AC50 [2]: 10.3 µM [falling, partial curve, poor fit]

CC(C)CCNC(=O)C1CCC(CNS(=O)(=O)c2cccc3nsnc23)CC1 (centres undefined)
cell number change: -34.4%
AC50 [1]: 29.1 µM [falling, single point]

Cc1ccccc1OCC(=O)N1N=C(c2cccnc2)CC1(O)C(F)(F)F (centres undefined)
cell number change: -3.83%
AC50 [2]: 2.06 µM [rising, partial curve]

COc1cccc(NC(=O)CSc2ncnc3c2cnn3Cc2ccccc2)c1
cell number change: 23.5%
AC50 [1]: 0.92 µM [rising, partial curve, poor fit]
AC50 [2]: 0.82 µM [rising, single point]

CCOC(=O)NC(=O)/C(C#N)=C\c1ccccc1
AC50 [2]: 0.58 µM [rising, single point]

COc1ccc2c(Cl)c(C(=O)N/N=C/c3ccc4c(c3)OCO4)sc2c1
cell number change: -15.9%
AC50 [2]: 0.0651 µM [falling, partial curve, poor fit]

O=C(NCc1ccco1)C1CCC(N2C(=O)C3C4CCC(C4)C3C2=O)CC1 (centres undefined)
cell number change: 115%
AC50 [1]: 10.3 µM [rising, partial curve]
AC50 [2]: 18.4 µM [rising, partial curve]

O=C(CSc1nnc(CNC(=O)c2cccs2)o1)NC1CCCCC1
cell number change: -17.9%
AC50 [1]: 0.146 µM [falling, full curve, poor fit]

Cc1ccc(S(=O)(=O)N(C)CC(=O)Nc2cccc3c2CCCC3)cc1
cell number change: -46.4%
AC50 [1]: 5.8 µM [falling, full curve, poor fit]

CCN(CC)S(=O)(=O)c1ccc(NC(=O)CSc2cccc[n+]2[O-])cc1
cell number change: 29.4%

Cc1cc(NC(=O)CSc2nc(C(C)C)nc3c2c(=O)n(C)c(=O)n3C)no1
AC50 [1]: 0.058 µM [rising, full curve, poor fit]
AC50 [2]: 0.0651 µM [rising, full curve, poor fit]

COC(=O)Nc1ccc(S(=O)(=O)NNC(=O)c2c(O)c3ccccc3n(C)c2=O)cc1
cell number change: 32.8%
AC50 [1]: 5.8 µM [rising, partial curve, poor fit]

CC(=O)Nc1cccc(NC(=O)CSc2nnc(NC(=O)c3ccco3)s2)c1
cell number change: 20.8%

CN(C)c1ccc(/C=N/N(CCO)C2=NS(=O)(=O)c3ccccc32)cc1
cell number change: -84.4%
AC50 [1]: 29.1 µM [falling, single point]
AC50 [2]: 0.82 µM [falling, single point]

COc1ccc(C)cc1S(=O)(=O)Nc1ccccc1
AC50 [1]: 3.66 µM [rising, single point]

CCCCNC(=O)OC(C)CNC(=O)OC (centres undefined)
cell number change: -33.8%
AC50 [1]: 1.03 µM [falling, full curve, poor fit]

O=C(CSc1ncccn1)c1ccccc1Br
AC50 [2]: 6.51 µM [rising, single point]

CCCN(C(=O)CSc1nnnn1-c1ccccc1OC)C1CCS(=O)(=O)C1 (centres undefined)
cell number change: -23.3%
AC50 [2]: 10 µM [falling, partial curve, poor fit]
